Data from PubChem BioAssay AID1347172 (National Center for Advancing Translational Sciences (NCATS), 2019).
Where “and” joins values, the source holds several entries; their conditions need not be identical. Identical values can stand only once. Inconclusive means that the source gave no clear call. Such entries were picked first, then a sample of the others. Potencies of inconclusive entries are doubtful fits and often do not repeat. Calls of active or inactive are those of the source. Calls come from the whole dose curve; as a rule, active = well fitted inhibition curve with a large enough effect; inconclusive = small, poorly fitted or top-dose-only effect; inactive = flat fitted curve, though single readings scatter.

Assay: Secondary qRT-PCR qHTS assay for selected Zika virus inhibitors
Conditions: Vero cells ZIKV infection, NS5 RNA qRT-PCR, 24 h; series mostly up to 32.6 µM
Source text: Assay Submitters (PI): Avindra Nath, Ph.D., National Institute of Neurological Disorders and Stroke (NINDS), Bethesda, MD Radhakrishnan Padmanabhan, Ph.D., Georgetown University (GU), Washington D.C. Zika Virus causes congenital defects, including microcephaly and is associated with Guillain-Barre syndrome, eningoencephalitis and myelitis in infected adult. […] Using a target-based approach, we hope to establish a screening paradigm to uncover novel, cell-active NS2B-NS3 protease (Zika Virus) specific inhibitors from NCATS' collection of small molecules using qHTS. […] Four assay panel was created to identify potential Zika Virus inhibitors. Namely, (1) GU unlinked NS2B-NS3 AMC tagged protease qHTS, (2) GU unlinked NS2B-NS3 Rhodamine tagged protease qHTS, (3) NINDS linked NS2B-NS3 AMC tagged protease qHTS, (4) NINDS linked NS2B-NS3 Rhodamine tagged protease qHTS. Inhibitors of the Zika virus primary screens are confirmed using qRT-PCR secondary assays, qRT-PCR mCherry orthogonal assay, and qRT-PCR viability counterscreen. Early Translation Branch (ETB) National Center for Advancing Translational Sciences (NCATS), Rockville, MD National Institute of Health (NIH), Bethesda, Maryland
384-well ZIKV qRT-PCR Assay: Vero cells were treated with the indicated compounds at different concentrations, infected with ZIKV (MOI=1) and incubated at 37 degrees C for 3 hours to permit virus invasion. After 3 hr, supernatant was removed, and cells were washed once to remove extracellular virus. After a further 21 hr incubation, infected cells were washed three times with cold PBS (4 degrees C). Plates were then process using the TaqmanGene Expression Cells-to-Ct Kit (ThermoFisher Scientific) following the manufactures protocol. Primers directed to the NS5 sequence (F-[…]; R-GCTCGGCCAATCAGTTCA) along with Taqman probe (FAM-[…]-BHQ; Biosearch Technologies) were used to quantify drug inhibition of viral load. Reactions were run at initial 95 degrees C for 10 min, then 40 cycles of 95 degrees C for 20 sec and 60 degrees C for 40 sec using a LightCycler 480 (Roche). Relative viral copy numbers were generated by normalizing to cells treated with vehicle.

Row | SMILES | Potency
1 | O=C(NOCC1CC1)c1cc(Br)c(F)c(F)c1Nc1ccc(I)cc1Cl | inconclusive: 5.01 µM [inhibitor, full curve]
2 | CC(C)=CCCC1(C)C=Cc2c(O)c3c(c(CC=C(C)C)c2O1)OC12C(=CCCC1C(C)(C)O[C@@]2(C/C=C(\C)C(=O)O)C(=O)O)C3=O (stereo not given in full) | inconclusive: 22.4 µM [inhibitor, single point]
3 | COc1ccc(Cl)c(Nc2nc3ccccc3nc2NS(=O)(=O)c2cccc(NC(=O)C(C)(C)N)c2)c1 | inconclusive: 12.6 µM [inhibitor, partial curve, poor fit]
4 | Cc1nc(C2CCCCC2)c(-c2ccc(S(N)(=O)=O)c(F)c2)o1 | inactive
5 | CO[C@H]1C[C@@H](O[C@@H]2/C(C)=C/C[C@@H]3C[C@@H](C[C@]4(CC[C@H](C)[C@@H](C5CCCCC5)O4)O3)OC(=O)[C@@H]3C=C(C)/C(=N/O)[C@H]4OC/C(=C\C=C\[C@@H]2C)[C@]43O)O[C@@H](C)[C@H]1O | active: 3.98 µM
6 | CC(C)=CCc1c2c(c3occ(-c4ccc(O)c(O)c4)c(=O)c3c1O)C=CC(C)(C)O2 | active: 4.47 µM
7 | CC(C)c1ccc2c(c1)c(SC(C)(C)C)c(CC(C)(C)C(=O)O)n2Cc1ccc(Cl)cc1 | active: 10 µM
8 | COc1cccc(-n2nc(C(=O)O)cc2-c2ccc(C3CCCCC3)c(Cl)c2)c1 | inconclusive: 22.4 µM [inhibitor, partial curve]
9 | CCCCc1nn2c(=O)cc(COC(=O)c3ccc(NC(=O)c4ccccc4Cl)cc3)nc2s1 | inconclusive: 4.47 µM [inhibitor, full curve]
10 | Oc1cccc(-c2c3nc(c(-c4cccc(O)c4)c4ccc([nH]4)c(-c4cccc(O)c4)c4nc(c(-c5cccc(O)c5)c5ccc2[nH]5)CC4)C=C3)c1 | inconclusive: 22.4 µM [inhibitor, partial curve]
11 | Cc1ccn(-c2cc(Cl)ccc2[C@@H](Oc2cc(-c3ccc(C[C@H](N)C(=O)O)cc3)nc(N)n2)C(F)(F)F)n1 | inconclusive: 25.1 µM [inhibitor, single point]
12 | C/C(=C\c1ccc(C(=O)O)cc1)c1ccc2c(c1)C(C)(C)CCC2(C)C | active: 12.6 µM
13 | CC1(C)CC[C@]2(C(=O)O)CC[C@]3(C)C(=CCC4[C@@]5(C)CC[C@H](O[C@@H]6O[C@H](C(=O)O)[C@@H](O)[C@H](O)[C@H]6O)C(C)(C)C5CC[C@]43C)C2C1 (stereo not given in full) | inconclusive: 6.31 µM [inhibitor, partial curve, poor fit]
14 | COc1cc(C(=O)NS(=O)(=O)c2ccccc2C)ccc1Cc1cn(C)c2ccc(NC(=O)OC3CCCC3)cc12 | inactive
15 | N#CC(c1ccnc(OCc2ccc(CN3CCOCC3)cc2)n1)c1nc2ccccc2s1 (stereo not given) | inconclusive: 25.1 µM [inhibitor, single point]
16 | CN(CC(=O)N(Cc1ccc(C2CCCCC2)cc1)c1ccc(C(=O)O)cc1)S(=O)(=O)c1c(F)c(F)c(F)c(F)c1F | active: 12.6 µM
17 | Cc1cc(NC(=O)c2ccc(Cl)c(Cl)c2)ccc1-c1cc2ccccc2oc1=O | inconclusive: 15.8 µM [inhibitor, partial curve, poor fit]
18 | CC(C)(Sc1ccc(CCN(CCCCC2CCCCC2)C(=O)NC2CCCCC2)cc1)C(=O)O | inactive
19 | CC(=O)OC12CC(C)C(OC(=O)c3ccccc3)C1/C=C(/C)C(OC(=O)c1ccccc1)CC(=O)C(C)(C)/C=C/C(C)C2=O (stereo not given) | inactive
20 | COc1ccc(-c2ccccc2)cc1NS(=O)(=O)c1cc(Cl)cc(Cl)c1O | inconclusive: 11.2 µM [inhibitor, partial curve, poor fit]

Row | SMILES | Potency
21 | O=C(Nc1cc(C(F)(F)F)cc(C(F)(F)F)c1)c1cc(Cl)ccc1O | inconclusive: 0.708 µM [inhibitor, full curve, poor fit]
22 | COc1cc2c(c(O)c1OC/C=C(\C)CC/C=C(/C)CCC=C(C)C)CN(C(CCC(=O)O)C(=O)O)C2=O (stereo not given) | inconclusive: 11.2 µM [inhibitor, single point]
23 | O=S(=O)(Nc1cc(Cl)c(Oc2cnc3ccccc3c2)c(Cl)c1)c1ccc(Cl)cc1Cl | active: 22.4 µM
24 | O=C(O)Cc1cccc(OCCCN(Cc2cccc(C(F)(F)F)c2Cl)CC(c2ccccc2)c2ccccc2)c1 | active: 14.1 µM
25 | Cc1ccc2c(=O)c3ccccc3n(CCCN)c2c1C | inconclusive: 10 µM [inhibitor, partial curve]
26 | CC(C)c1cccc2c(-c3ccccc3)cc(-c3ccc(-c4ccc(C(=O)O)cc4)[nH]3)nc12 | active: 10 µM
27 | CCCCCCCOc1cc2c(cc1/C(C)=C/c1ccc(C(=O)O)cc1)C(C)(C)CCS2(=O)=O | active: 14.1 µM
28 | Cc1ccc(-n2[nH]c(C)c(N=Nc3cccc(-c4cccc(C(=O)O)c4)c3O)c2=O)cc1C | inconclusive: 22.4 µM [inhibitor, single point]
29 | O=C(Nc1ccc(-c2ccc(Cl)c(Cl)c2)cc1)C1=C(O)c2ccccc2S(=O)(=O)N1 | inconclusive: 25.1 µM [inhibitor, partial curve, poor fit]
30 | Oc1cc2ccccc2c2ccccc12 | active: 22.4 µM
31 | COc1cc(O)c2c(=O)cc(-c3ccc(OC)c(-c4c(O)cc(O)c5c(=O)cc(-c6ccc(O)cc6)oc45)c3)oc2c1 | inconclusive: 10 µM [inhibitor, partial curve, poor fit]
32 | N#CC1(c2cccc(C(=O)Nc3cc(Oc4ccc5nc(NC(=O)C6CC6)sc5n4)ccc3F)c2Cl)CC1 | inactive
33 | COc1ccc(NS(=O)(=O)c2ccc(NS(=O)(=O)c3ccc4c(c3)OCCO4)cc2)cc1 | inactive
34 | CC(C)(C)Sc1c(CC(C)(C)C(=O)O)n(Cc2ccc(Cl)cc2)c2ccc(OCc3ccc4ccccc4n3)cc12 | active: 25.1 µM
35 | CC(C)c1cc(C(C)C)c(CC(=O)NS(=O)(=O)Oc2c(C(C)C)cccc2C(C)C)c(C(C)C)c1 | active: 10 µM
36 | O=C(Nc1ccc([N+](=O)[O-])cc1Cl)c1cc(Cl)ccc1O | inconclusive: 10 µM [inhibitor, full curve] and inconclusive: 891 nM [inhibitor, full curve, poor fit]
37 | Cc1cc2c(C(C)C)c(O)c(O)c(C=O)c2c(O)c1-c1c(C)cc2c(C(C)C)c(O)c(O)c(C=O)c2c1O | inconclusive: 7.08 µM [inhibitor, full curve, poor fit]
38 | CN(C)[C@@H]1C(=O)C(C(N)=O)=C(O)[C@@]2(O)C(=O)C3=C(O)c4c(O)ccc(Cl)c4[C@@H](O)[C@H]3C[C@@H]12 | inactive
39 | CCOc1c2c(c(OCC)c3ccccc13)C(=O)N(c1ccc(CC(=O)NS(=O)(=O)c3ccccc3)cc1)C2 | inactive
40 | CCCCCc1ccc(/C=C/C(=O)Nc2cc(Cl)ccc2C(=O)O)cc1 | inconclusive: 25.1 µM [inhibitor, single point]
